The results in this text go back to paper PMC10102067 (Communications Biology, 2023).

The same purity stands for every peptide and may come from a single statement. A value given as a limit tells only on which side of the number the result lay.

The series is described as follows: general procedure: peptide synthesis; PyBOP, DIPEA. The settings on record: conjugation step, cyclic, sequence written open.

Vanco-8C-Tz-DMACA: the conjugation yield was determined as 16%. For the same substance, the “final purity (method not given)” value (UV @ 200 nm and ELSD) is reported as > 95%.
